The other results are listed elsewhere or left out.

Protein sequences, listed by entry. Tags and fused reporters are not part of them.
UniProt Q0JBA9, entry or part of it: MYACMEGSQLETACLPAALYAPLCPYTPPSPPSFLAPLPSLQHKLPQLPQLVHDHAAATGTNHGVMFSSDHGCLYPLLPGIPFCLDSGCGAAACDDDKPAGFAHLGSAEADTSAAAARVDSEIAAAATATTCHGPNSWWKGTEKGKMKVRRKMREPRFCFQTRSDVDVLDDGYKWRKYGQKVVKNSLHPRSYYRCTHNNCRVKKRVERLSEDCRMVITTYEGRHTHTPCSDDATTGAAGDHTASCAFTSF

The target of this test is OsWRKY34 (Oryza sativa, UniProt Q0JBA9 1-250). The test can be described thus: protein-binding microarray (RPBM); PBS, 2% BSA, 51.3 ng/ul salmon testes DNA, 50 uM zinc acetate, 200 nM TF, 25 C, 1 h; high values mean tight binding. As to conditions: protein: recombinant; tags: N-terminal polyhistidine and DsRed monomer fusion (pET32a); label: CyDye5-dUTP incorporated in the synthesized complementary strand; 3' TTTTT single-stranded linker to array surface; dsDNA, one strand shown. The method in brief:
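Transcription factors were each fused at the N-terminus to a polyhistidine tag plus DsRed and expressed in E. coli BL21-CodonPlus before Ni–NTA purification. Binding to a double-stranded custom Agilent array was carried out with 200 nM protein at 25 °C for 1 h in PBS, 2% BSA, salmon testes DNA and 50 µM zinc acetate. The binding signal is per-feature fluorescence intensity, in arbitrary units, on an Axon 4000B scanner.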
With “TCACTGCCACCACCACTATTTTCTTTGAAGTAGTACAGACCGGAGTCACCTAGTGCAG”, the binding signal is 8580 fluorescence intensity (a.u.). Then “ATAATCATTTCTATGTTTTTTTTCTAAATGTGCGTATTGACGGAGTCACCTAGTGCAG”, with 8150 fluorescence intensity (a.u.); and “CATATACTCCCTCCGTTTTTTAATAGATGACGCCGTTGACCGGAGTCACCTAGTGCAG”, with 12300 fluorescence intensity (a.u.). Take “CTCTTCATCCAGCTCACTGCATAATCACACACTAATTAACCGGAGTCACCTAGTGCAG”: the binding signal was 9380 fluorescence intensity (a.u.). With “TTCACATTGACTCCCTTAACTACTGATGCGAATCAGATTCCGGAGTCACCTAGTGCAG” the figure was 8270 fluorescence intensity (a.u.); with “TTGCTTTGCCATGTTTCTTCTACTTTCCCCAAAACACCGTCGGAGTCACCTAGTGCAG”, 8330 fluorescence intensity (a.u.). “GTACTCTGTCACTGCTTTTTCTTGTAGTGAATTCCCACTTCGGAGTCACCTAGTGCAG”: the binding signal is 8480 fluorescence intensity (a.u.). Then “TCGTCGCACTCACTGCCGCCGTGCCGCTTGCGTCGCGCTCCGGAGTCACCTAGTGCAG”, with 8360 fluorescence intensity (a.u.); and “GCCTATTAGCCCCACCCACTTAGTTGTATGGAGTTTTGTTCGGAGTCACCTAGTGCAG”, with 9160 fluorescence intensity (a.u.); and “CATGCCATCTCCAAAAGTCCACTCCTCGCCTTCGTTTCTCCGGAGTCACCTAGTGCAG”, with 11900 fluorescence intensity (a.u.). With “CGTCCAGTCCGCTCCCTCCCTCATTCATTCGGTTCGGTAACGGAGTCACCTAGTGCAG”, the binding signal is 8870 fluorescence intensity (a.u.). For “TTATTATCTACAGTACTTTAATCACAACTTTTCGTTTTTTCGGAGTCACCTAGTGCAG”, the binding signal was 8940 fluorescence intensity (a.u.). Turning to “CTTTTCTCTGACCTTTTCTTCTCTAGACCTTGAAACAACACGGAGTCACCTAGTGCAG”, the binding signal was 9460 fluorescence intensity (a.u.). On to “TCTGAAACACACGCATAACGCATTGACCGCGATCCGCTCCCGGAGTCACCTAGTGCAG”, for which the binding signal was 9460 fluorescence intensity (a.u.). “TCCAATTTGTCGTGTCAATTCTGAGTTCTTGGCCCATTCACGGAGTCACCTAGTGCAG”: the binding signal is 12300 fluorescence intensity (a.u.). With “CGTGCATCAACTCTAGCCTTAGTATCCCGCATGATATCTGCGGAGTCACCTAGTGCAG”, the binding signal was 9490 fluorescence intensity (a.u.). As for “ATGCGCATCCTCTTCCTCATCTCTCTCTACCCACGCATGCCGGAGTCACCTAGTGCAG”, the binding signal is 8900 fluorescence intensity (a.u.). With “GCATATGACCTCCCAACATCTTCTTCCACGCATCCTCCTTCGGAGTCACCTAGTGCAG” the figure was 8160 fluorescence intensity (a.u.).

Turning to “TTATGCAGTCGACTGCACCGTGTGCCATTGTCACTGACATCGGAGTCACCTAGTGCAG”, the binding signal is 10800 fluorescence intensity (a.u.). “AGCTTTCTATTTTGGTTTGTTTATAGACTATGTTATGCATCGGAGTCACCTAGTGCAG”: the binding signal was 8990 fluorescence intensity (a.u.). Regarding “CCTGCTGCTTCTTCGCCACCTGCGCCGAGATCTCCCGCGCCGGAGTCACCTAGTGCAG”, the binding signal was 11300 fluorescence intensity (a.u.). As for “TAACCGCGCCCTCTTTGAACGCGGGAGCTTGGACTTTGACCGGAGTCACCTAGTGCAG”, the binding signal is 9020 fluorescence intensity (a.u.). Then “GGAGTACTGCCGATGCATGGTGGGCTGGGGCTGCTGGGAGCGGAGTCACCTAGTGCAG”, with 8200 fluorescence intensity (a.u.).

“GCTTCACCACACCATGATCCTGCCTCATCTCTGACAGCTCCGGAGTCACCTAGTGCAG”: the binding signal was 13600 fluorescence intensity (a.u.).

Regarding “GCGCAAACCGATCGATCCATCCATCGTCTACCTGTACGTACGGAGTCACCTAGTGCAG”, the binding signal is 8440 fluorescence intensity (a.u.).

Regarding “TAGCAACTCCGTTCTTTTTCTTCTTTTCTCTCACTCACTCCGGAGTCACCTAGTGCAG”, the binding signal is 8360 fluorescence intensity (a.u.). With “TCTTTCTTCTCCTCGAGTCTGTCGATCTCCCTGCTTTTCCCGGAGTCACCTAGTGCAG” the figure was 10100 fluorescence intensity (a.u.). With “GGCTCTTAATACCAGTGTATCTACCGGCGCAAGTATCAAACGGAGTCACCTAGTGCAG” the figure was 9190 fluorescence intensity (a.u.); with “GAGTTCTTTTTTCCCCGTGGCATGGTGACGCCAATGCTTCCGGAGTCACCTAGTGCAG”, 8070 fluorescence intensity (a.u.). For “CCCAACTACCAAACCAAACTGTTGCATTTGCCGCTGCGACCGGAGTCACCTAGTGCAG”, the binding signal is 8520 fluorescence intensity (a.u.). With “ATCTTATGGTGTATTTTTTTTTTCTCCGGTGCAGGTTGGTCGGAGTCACCTAGTGCAG” the figure was 8260 fluorescence intensity (a.u.); with “CTAACCTTCCGTGTCCAACTTTGACTGTCCGTCTTATATGCGGAGTCACCTAGTGCAG”, 9050 fluorescence intensity (a.u.). Take “TGAAATGCATTCTAATTTGCCTTTTCTTTTCTTTTTTTTTCGGAGTCACCTAGTGCAG”: the binding signal was 9010 fluorescence intensity (a.u.).

Turning to “CCGCTCGCCGCTAGCTCTCGCGTCGCCACCGTTTAATCCTCGGAGTCACCTAGTGCAG”, the binding signal was 10100 fluorescence intensity (a.u.).

Consider “AATATATTAGGGCATTGTTTAGTTCCAAACTTTTTCTTTACGGAGTCACCTAGTGCAG”, for which the binding signal was 9470 fluorescence intensity (a.u.).

Turning to “AGCTCTTTTCTGATTTAGATATAATTTTTACGTCGGTTTTCGGAGTCACCTAGTGCAG”, the binding signal is 8080 fluorescence intensity (a.u.). Take “CTGTTTTGTATCTTTTTATTTTTATTTTTTATCCTTTTTTCGGAGTCACCTAGTGCAG”: the binding signal is 12200 fluorescence intensity (a.u.). For “GATTGTGTCATAGTTCTATAGTTGGAATTTGGTTTATCGTCGGAGTCACCTAGTGCAG”, the binding signal was 8080 fluorescence intensity (a.u.). For the sequence “TTATGGAAGTCGGACTAAACGGACTTCTTTTTTGTTTTTTCGGAGTCACCTAGTGCAG”, the binding signal is 8580 fluorescence intensity (a.u.).

On to “CATTCGTTTGTTTTGCTTGCATGGAGTTTTGGATTAACACCGGAGTCACCTAGTGCAG”, for which the binding signal is 10200 fluorescence intensity (a.u.).

Turning to “GTTGTTGACTTTTTAAAATTTGTTTGACCATTCATCTTATCGGAGTCACCTAGTGCAG”, the binding signal was 23100 fluorescence intensity (a.u.). For the sequence “GGGCTTCCCGTGGACCGCGCCCACCCGCGCCGGCCTCACGCGGAGTCACCTAGTGCAG”, the binding signal was 8220 fluorescence intensity (a.u.).
